Measured values as given in PubChem BioAssay AID504444 (National Center for Advancing Translational Sciences (NCATS), 2011).
About 7,500 (2.1%) of roughly 360,000 compounds were called active. The shares of active, inactive and inconclusive entries below differ from those in the screen. The call rests on the fitted dose curve; in most records, active means well fitted inhibition curve with a large enough effect; inconclusive means small, poorly fitted or top-dose-only effect, or effect the other way; inactive means flat fitted curve, though single readings scatter. Potencies beside an inconclusive call are fits to weak or partial responses and may not hold up.

assay: Nrf2 qHTS screen for inhibitors; conditions: A549 ARE-Fluc reporter, luciferase luminescence, 18-24 h; activity change, negative = inhibition: at 46 µM (top of the series); further: nearly all actives have a fitted effect of over 60% in size
In short: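 Nrf2 function is reported as luminescence of an ARE-controlled luciferase in A549 cells. Compounds were tested at several concentrations, and a CellTiter-Fluor read on the same wells flagged cytotoxicity.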
On the % scale 0 is the no-effect control and ±100 the full control effect; potency means the concentration at half of the fitted maximal effect.

SMILES | activity change, negative = inhibition | Potency
Cc1cccc(/C=N/NC(=O)c2ccc(NC(=O)c3ccc(F)cc3)cc2)n1 | inactive: -16.3% | –
Cc1nonc1OCCCNc1ccc([N+](=O)[O-])cc1Cl | – | inconclusive: 0.92 µM [activator, partial curve, poor fit]
COC(=O)Cc1c(C)c2ccc(OCC(C)=O)c(C)c2oc1=O | – | inconclusive: 7.31 µM [activator, partial curve]
Brc1ccc(/C=N/Nc2nc3ccccc3o2)cc1 | – | inconclusive: 8.2 µM [activator, partial curve]
O=C1c2cccc3cccc(c23)C(=O)N1OS(=O)(=O)c1ccc(Br)cc1 | inactive: 20.1% | –
COc1ccc(S(=O)(=O)N2CCCCCC2)cc1C(=O)OCC(=O)NC1CCS(=O)(=O)C1 (stereo unspecified) | inactive: 4.46% | –
CCN(CC)S(=O)(=O)c1cccc(-c2nnc(SCCOc3ccccc3C)o2)c1 | – | inconclusive: 29.1 µM [falling, single point]
COc1ccc(OC)c(-c2csc(NC(=O)Cc3ccc(OC)c(OC)c3)n2)c1 | – | inconclusive: 20.6 µM [falling, partial curve, poor fit]
O=S(=O)(c1ccccc1)c1nc(-c2ccccc2Cl)oc1NCCN1CCOCC1 | – | inconclusive: 29.1 µM [falling, partial curve, poor fit]
COc1cccc(N2CCN(c3ncnc4c3[nH]c3ccc(F)cc34)CC2C)c1 (stereo unspecified) | – | active: 6.51 µM
CCN(CC(=O)NC(=O)NCc1ccco1)Cc1nc2ccccc2c(=O)[nH]1 | – | inconclusive: 2.91 µM [activator, full curve]
O=C(Nc1ccc(Cl)cc1)c1ccc(OCC2CCCO2)cc1 (stereo unspecified) | – | inconclusive: 1.84 µM [activator, partial curve]
Cc1cccc(Nc2nc(-c3ccc4c(c3)OCCO4)cs2)c1 | – | inconclusive: 9.2 µM [activator, partial curve]
COc1ccc(-c2oc(=O)c3cc(OC)c(OC)cc3c2C#CCCO)cc1 | inactive: -14.9% | –
COc1ccc(Cn2nnnc2C(c2ccccc2)N2CCN(c3ccccc3)CC2)cc1 (stereo unspecified) | inactive: -18% | –
COc1cc(/C=C2\CC(C(C)(C)C)C/C(=C\c3cc(OC)c(OC)c(OC)c3)C2=O)cc(OC)c1OC (stereo unspecified) | – | active: 5.8 µM
O=C(CCCn1c(=O)[nH]c2ccsc2c1=O)NC1CCCCC1 | – | inconclusive: 29.1 µM [activator, single point]
COc1ccc(N(C)S(=O)(=O)c2ccc3c(c2)n(C)c(=O)c(=O)n3C)cc1 | inactive: -16.2% | –
CC(C)c1nnc(NC(=O)CCC(=O)NCc2ccc(F)cc2)s1 | – | inconclusive: 4.61 µM [activator, single point]
CCc1ccc(-c2cc(C)no2)cc1S(=O)(=O)N1CCN(c2cccc(C)c2C)CC1 | – | inconclusive: 14.6 µM [falling, partial curve, poor fit]
CCOc1ccc(-c2noc(CSc3nnc(Cc4ccccc4)n3-c3ccc(F)cc3)n2)cc1 | – | inconclusive: 29.1 µM [falling, single point]
CCC(c1nnnn1C1CCCC1)N(Cc1cccs1)Cc1cc2cccc(C)c2[nH]c1=O (stereo unspecified) | – | inconclusive: 29.1 µM [falling, single point]

SMILES | activity change, negative = inhibition | Potency
Cc1ccc(Cl)c(OCC(=O)Nc2ccc3c(c2)OCCO3)c1 | – | inconclusive: 1.16 µM [activator, full curve, poor fit]
O=C(Cn1c(-c2cccs2)cc2cc(F)ccc21)N1CCCCC1 | – | inconclusive: 29.1 µM [falling, single point]
C=CCn1c(=O)c2ccccc2n2c(SCC(C)=O)nnc12 | – | inconclusive: 5.8 µM [falling, partial curve, poor fit]
S=c1[nH]nc(COc2ccc(Cl)cc2)n1-c1ccc(Cl)cc1 | – | inconclusive: 25.9 µM [falling, partial curve, poor fit]
CCCc1nnc(NC(=O)c2cc(OC)cc(OC)c2)s1 | – | inconclusive: 29.1 µM [falling, partial curve, poor fit]
COC(=O)c1scc(-c2ccc(C)cc2)c1S(=O)(=O)N1CCN(c2ccccc2F)CC1 | – | inconclusive: 3.66 µM [falling, full curve, poor fit]
Cc1ccc(S(=O)(=O)N2CCN(c3nc(C(N)=O)nc4ccccc34)CC2)cc1 | inactive: 5.49% | –
Cc1cc(Cl)n2ncc(-c3ccccc3)c2n1 | – | inconclusive: 25.9 µM [activator, single point]
Cc1cccc(N2CCN(S(=O)(=O)c3cccs3)CC2)c1C | – | inconclusive: 29.1 µM [falling, single point]
CCN1CCOC(=O)C1CC(=O)Nc1cc(Cl)ccc1C (stereo unspecified) | inactive: 1.73% | –
O=[N+]([O-])C(/C=C(/Cl)[N+](=O)[O-])=C(N1CCCCC1)N1CCCCC1 | inactive: 0.421% | –
C/C(=N\NC(=S)Nc1cc(S(=O)(=O)N2CCOCC2)ccc1Cl)c1ccc(N2CCOCC2)cc1 | inactive: -15.4% | –
c1ccc(-c2nnc(-c3ccccn3)nc2NC2CCCCC2)cc1 | – | active: 1.84 µM
CCN1CCN(CCCNC(=O)c2cnn(-c3ccc(OC)cc3)c2C2CCN(C(=O)OC(C)(C)C)CC2)CC1 | – | inconclusive: 25.9 µM [activator, single point]
COc1ccc(C2Nc3ccccc3C(=O)N2c2ccccc2)cc1COc1ccccn1 (stereo unspecified) | inactive: 5.26% | –
Cc1nc2oc3ccc(F)cc3c(=O)c2cc1C(=O)O | – | inconclusive: 14.6 µM [activator, partial curve]
CCOC(=O)c1ccc(Nc2nc3ccccc3n3c(C)nnc23)cc1 | – | inconclusive: 29.1 µM [falling, single point]
COc1ccc(NS(=O)(=O)c2ccc(C)c(NC(=O)c3ccc(C)c(S(=O)(=O)N4CCOCC4)c3)c2)cc1 | – | inconclusive: 20.6 µM [falling, single point]
COc1ccc(OS(=O)(=O)c2c(C)noc2C)cc1 | – | inconclusive: 20.6 µM [activator, single point]
CC1(C)CC2CC(C)(CN2S(=O)(=O)c2ccc(C(=O)Nc3ccc(S(=O)(=O)N4CCOCC4)cc3)cc2)C1 (stereo unspecified) | – | active: 1.46 µM
Cc1ccc2c(c1)sc(-c1ccc(N(C)C)cc1)[n+]2C | – | active: 2.06 µM
NS(=O)(=O)c1ccc(N/N=C/c2ccc(C(=O)O)cc2)c([N+](=O)[O-])c1 | inactive: 0.635% | –

SMILES | activity change, negative = inhibition | Potency
COc1ccccc1CCNC(=O)CCCn1c(=O)c2cccn2c2cccnc21 | – | inconclusive: 18.4 µM [falling, partial curve, poor fit]
COc1cc(OC)c2ccc(=O)oc2c1C(CCN1CCOCC1)c1ccc2c(c1)OCO2 (stereo unspecified) | inactive: 12% | –
CC#C[C@]1(O)CC[C@H]2[C@@H]3CCC4=CC(=O)CCC4=C3[C@@H](c3ccc(N(C)C)cc3)C[C@@]21C | – | active: 23.1 µM
COC(=O)c1ccc(NC(=O)Nc2ccc(F)cc2F)cc1 | – | inconclusive: 23.1 µM [activator, partial curve, poor fit]
O=C1c2ccccc2NC(c2ccccn2)N1c1ccc(Cl)cc1 (stereo unspecified) | – | inconclusive: 18.4 µM [activator, partial curve]
COCCN(CCOC)c1nc(S(=O)(=O)c2ccc(C)cc2)c(Cl)s1 | – | inconclusive: 0.82 µM [falling, full curve, poor fit]
O=S(=O)(Nc1nc2ccccc2nc1Cl)c1ccc(Br)cc1 | – | inconclusive: 16.4 µM [falling, single point]
CCCC(=O)Nc1nnc(SCC(=O)NC2CC2)s1 | – | inconclusive: 3.26 µM [activator, full curve, poor fit]
COc1ccccc1N(C)S(=O)(=O)c1ccc(C(=O)N(C)Cc2ccc(Cl)s2)cc1 | – | inconclusive: 16.4 µM [falling, partial curve, poor fit]
CCC(=O)n1nc(-c2ccc(OC)cc2)nc1NCc1cccs1 | – | inconclusive: 2.59 µM [activator, full curve, poor fit]
CN(C)c1ccc(NC(=O)CN2CCN(S(=O)(=O)c3cc(Cl)ccc3Cl)CC2)cc1 | – | inconclusive: 0.231 µM [activator, full curve, poor fit]
Cc1cc(C)n(CCc2nc(-c3ccc(F)cc3)cs2)n1 | – | inconclusive: 29.1 µM [activator, single point]
O=C(NCc1cccnc1)c1cc(Sc2ccccc2Cl)nc2ccccc12 | – | inconclusive: 20.6 µM [falling, partial curve, poor fit]
CCCn1c(SCC(=O)Nc2cccc(S(=O)(=O)N(C)C)c2)nc2ccccc2c1=O | – | inconclusive: 14.6 µM [falling, partial curve]
CCOC(=O)C1CCCCN1C(=O)CCc1c(C)nc2ncnn2c1C (stereo unspecified) | – | inconclusive: 11.6 µM [falling, partial curve, poor fit]
CC(C)(C)OC(=O)NCCCCCc1nnc(SCC(=O)Nc2cccc(Cl)c2)o1 | – | inconclusive: 4.61 µM [falling, partial curve]
O=C(N/N=C/c1ccc(O)c(O)c1)NC12CC3CC(CC(C3)C1)C2 | inactive: 5.04% | –
COc1cc(Cl)c(C)cc1NC(=O)c1nn(C)c2c1CSc1ccccc1-2 | inactive: 15.1% | –
Cc1cc(C(=O)CN2C(=O)C3CC=CCC3C2=O)c(C)n1-c1ccccc1 (stereo unspecified) | – | inconclusive: 0.58 µM [activator, full curve, poor fit]
O=C(NN=C1CCCCCCC1)c1ccc2ccccc2n1 | – | inconclusive: 18.4 µM [activator, partial curve, poor fit]
COc1ccc(/C=N\NC(=O)c2ccc(-c3ccccc3)cc2)cc1COC(C)=O | – | inconclusive: 18.4 µM [falling, single point]
CCOc1ccccc1NC(=O)COc1coc(CN2CCCc3ccccc32)cc1=O | – | inconclusive: 20.6 µM [falling, single point]

Of the compounds above, 3 have a tert-butyl group:
SMILES | activity change, negative = inhibition | Potency
COc1cc(/C=C2\CC(C(C)(C)C)C/C(=C\c3cc(OC)c(OC)c(OC)c3)C2=O)cc(OC)c1OC (stereo unspecified) | – | active: 5.8 µM
CCN1CCN(CCCNC(=O)c2cnn(-c3ccc(OC)cc3)c2C2CCN(C(=O)OC(C)(C)C)CC2)CC1 | – | inconclusive: 25.9 µM [activator, single point]
CC(C)(C)OC(=O)NCCCCCc1nnc(SCC(=O)Nc2cccc(Cl)c2)o1 | – | inconclusive: 4.61 µM [falling, partial curve]
